The values below come from paper PMC12384986.

Amino acid sequences for entries named in this document (tags omitted). Residues count along the entry.
UniProt P05231, 30-212: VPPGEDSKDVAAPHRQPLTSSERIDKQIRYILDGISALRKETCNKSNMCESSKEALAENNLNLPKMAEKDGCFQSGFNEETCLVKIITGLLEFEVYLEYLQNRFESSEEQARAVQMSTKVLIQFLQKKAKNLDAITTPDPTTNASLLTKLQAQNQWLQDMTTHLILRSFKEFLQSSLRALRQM

Construct, isoform or probe ends are uncertain for at least one entry. At least one verdict was read from the data and is not stated in words by the source.

The data set deals with Interleukin-6 (rhIL-6) (human) (UniProt P05231). Nature of the data set: electrochemical aptasensor (SWV). As to conditions: 500 and 1000 pg/mL rhIL-6, 30 Hz, reversible; 3' thiol (immobilised on gold); 1x DPBS with 0.1 M NaCl, pH 7.4, room temperature; aptamer on gold electrode with MCH backfill, SWV 30-500 Hz; recombinant protein; label: 5' methylene blue; single-stranded DNA.

For “GGTGGCAGGAGGACTATTTATTTGCTTTTCT [IL-6 aptamer]”, the binding result is listed as “binds”.
